Source: article doi:10.1101/2020.01.13.904870 (bioRxiv, 2020)
No constants are given. Whether binding was seen depends on the method and setting. Some results given as binding are weak or reduced against the parent protein; the word gives no strength. Tags and fused reporters may be left off the sequences shown.

Legend:
[1] = biological target: Flag-tagged HsFN3K, wild type, in HEK293T cells (human) (UniProt Q9H479); assay: SDS-PAGE and anti-Flag immunoblot of total cell lysate
[2] = biological target: Flag-tagged HsFN3K C24A mutant, in HEK293T cells (human) (UniProt Q9H479); assay: as above

| binding [1] | binding [2] | Binder |
| --- | --- | --- |
| binds | – | Recombinant His-HsFN3K (human Fructosamine-3-kinase), wild type (enzyme, UniProt Q9H479 1-309, looked up) MEQLLRAELRTATLRAFGGPGAGCISEGRAYDTDAGPVFVKVNRRTQARQMFEGEVASLEALRSTGLVRVPRPMKVIDLPGGGAAFVMEHLKMKSLSSQASKLGEQMADLHLYNQKLREKLKEEENTVGRRGEGAEPQYVDKFGFHTVTCCGFIPQVNEWQDDWPTFFARHRLQAQLDLIEKDYADREARELWSRLQVKIPDLFCGLEIVPALLHGDLWSGNVAEDDVGPIIYDPASFYGHSEFELAIALMFGGFPRSFFTAYHRKIPKAPGFDQRLLLYQLFNYLNHWNHFGREYRSPSLGTMRRLLK |
| – | no binding | Flag-tagged HsFN3K C24A mutant, in HEK293T cells (enzyme, UniProt Q9H479 1-309) MEQLLRAELRTATLRAFGGPGAGAISEGRAYDTDAGPVFVKVNRRTQARQMFEGEVASLEALRSTGLVRVPRPMKVIDLPGGGAAFVMEHLKMKSLSSQASKLGEQMADLHLYNQKLREKLKEEENTVGRRGEGAEPQYVDKFGFHTVTCCGFIPQVNEWQDDWPTFFARHRLQAQLDLIEKDYADREARELWSRLQVKIPDLFCGLEIVPALLHGDLWSGNVAEDDVGPIIYDPASFYGHSEFELAIALMFGGFPRSFFTAYHRKIPKAPGFDQRLLLYQLFNYLNHWNHFGREYRSPSLGTMRRLLK |
